PMC10341432
No constants are given. Whether binding was seen depends on the method and setting. Binding seen in cells or lysates may run through a third protein. A yes stands for co-enrichment or nearness to the bait. Other partners may have been found.

Chains of the proteins cited; added tags and fusions are not shown.
UniProt P08183: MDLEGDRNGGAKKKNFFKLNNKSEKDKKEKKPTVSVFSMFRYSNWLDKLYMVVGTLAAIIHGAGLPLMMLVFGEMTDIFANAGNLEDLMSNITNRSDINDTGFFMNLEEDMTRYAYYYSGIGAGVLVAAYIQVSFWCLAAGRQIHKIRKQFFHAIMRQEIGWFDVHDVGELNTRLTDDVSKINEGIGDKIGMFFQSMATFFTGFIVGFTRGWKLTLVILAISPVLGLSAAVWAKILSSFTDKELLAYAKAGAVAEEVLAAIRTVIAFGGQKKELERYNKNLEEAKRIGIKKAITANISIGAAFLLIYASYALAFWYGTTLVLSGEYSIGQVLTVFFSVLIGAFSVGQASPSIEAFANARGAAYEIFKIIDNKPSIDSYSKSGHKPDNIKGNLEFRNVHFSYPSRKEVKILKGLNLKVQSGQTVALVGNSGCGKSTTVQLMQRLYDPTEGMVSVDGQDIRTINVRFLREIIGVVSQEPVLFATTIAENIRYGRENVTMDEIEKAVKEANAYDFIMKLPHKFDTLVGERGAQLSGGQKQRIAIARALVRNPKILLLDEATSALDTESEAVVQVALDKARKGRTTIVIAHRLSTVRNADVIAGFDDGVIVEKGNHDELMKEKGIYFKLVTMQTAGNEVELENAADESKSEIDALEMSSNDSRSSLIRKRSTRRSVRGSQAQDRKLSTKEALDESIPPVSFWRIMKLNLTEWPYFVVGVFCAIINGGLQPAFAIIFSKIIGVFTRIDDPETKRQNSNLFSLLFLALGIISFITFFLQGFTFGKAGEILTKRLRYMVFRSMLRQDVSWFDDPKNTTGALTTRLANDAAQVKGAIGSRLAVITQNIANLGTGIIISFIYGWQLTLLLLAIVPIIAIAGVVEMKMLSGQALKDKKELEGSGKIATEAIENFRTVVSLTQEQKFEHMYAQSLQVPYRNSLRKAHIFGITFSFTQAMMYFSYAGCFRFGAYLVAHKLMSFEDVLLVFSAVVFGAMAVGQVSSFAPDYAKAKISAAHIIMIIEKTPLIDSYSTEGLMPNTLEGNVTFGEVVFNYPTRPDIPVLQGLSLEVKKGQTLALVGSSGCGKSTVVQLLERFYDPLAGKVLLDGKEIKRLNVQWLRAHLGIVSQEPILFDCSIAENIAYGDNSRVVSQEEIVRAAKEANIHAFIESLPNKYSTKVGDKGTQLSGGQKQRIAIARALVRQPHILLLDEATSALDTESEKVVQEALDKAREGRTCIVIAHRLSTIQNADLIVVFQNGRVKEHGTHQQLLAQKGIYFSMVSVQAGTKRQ
UniProt P46935: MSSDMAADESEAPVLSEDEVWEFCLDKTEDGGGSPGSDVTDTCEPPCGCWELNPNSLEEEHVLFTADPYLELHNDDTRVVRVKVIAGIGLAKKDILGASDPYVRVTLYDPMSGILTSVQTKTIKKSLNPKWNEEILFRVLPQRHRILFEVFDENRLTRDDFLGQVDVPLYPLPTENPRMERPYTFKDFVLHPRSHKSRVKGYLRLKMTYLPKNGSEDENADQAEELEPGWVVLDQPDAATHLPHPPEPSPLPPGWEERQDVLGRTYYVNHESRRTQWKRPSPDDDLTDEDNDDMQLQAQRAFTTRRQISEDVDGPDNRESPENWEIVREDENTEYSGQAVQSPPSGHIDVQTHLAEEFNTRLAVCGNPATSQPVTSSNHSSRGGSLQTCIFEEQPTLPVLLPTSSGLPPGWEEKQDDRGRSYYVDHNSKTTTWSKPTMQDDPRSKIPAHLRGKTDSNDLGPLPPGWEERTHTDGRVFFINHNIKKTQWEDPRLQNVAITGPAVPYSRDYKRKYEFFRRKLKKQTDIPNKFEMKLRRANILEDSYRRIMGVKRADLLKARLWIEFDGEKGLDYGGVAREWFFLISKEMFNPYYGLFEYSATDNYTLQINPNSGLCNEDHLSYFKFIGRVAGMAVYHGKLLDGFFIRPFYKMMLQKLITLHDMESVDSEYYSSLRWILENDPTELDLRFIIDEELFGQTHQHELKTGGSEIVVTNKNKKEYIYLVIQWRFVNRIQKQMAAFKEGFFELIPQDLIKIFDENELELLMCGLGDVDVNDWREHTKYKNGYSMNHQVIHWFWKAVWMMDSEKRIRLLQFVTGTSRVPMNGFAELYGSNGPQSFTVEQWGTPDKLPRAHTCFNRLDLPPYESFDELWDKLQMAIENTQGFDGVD
UniProt Q9CQJ4: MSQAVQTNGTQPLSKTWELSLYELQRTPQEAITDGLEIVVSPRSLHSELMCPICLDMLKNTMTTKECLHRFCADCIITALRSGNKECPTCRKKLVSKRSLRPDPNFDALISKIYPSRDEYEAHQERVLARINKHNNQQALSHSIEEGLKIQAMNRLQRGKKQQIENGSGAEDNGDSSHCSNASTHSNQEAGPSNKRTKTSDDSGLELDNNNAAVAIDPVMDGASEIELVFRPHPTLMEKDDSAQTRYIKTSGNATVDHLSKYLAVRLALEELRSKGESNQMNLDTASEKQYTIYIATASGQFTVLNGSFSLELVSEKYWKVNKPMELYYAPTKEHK

Target: P-glycoprotein (human), as expressed on NIH 3T3 MDR1 cells (human) (UniProt P08183)
Assay: affinity purification with mass spectrometry; Pgp enriched with 15D3 or UIC2 mAb on Protein G magnetic beads from membrane preparations of NIH 3T3 MDR1 cells; nine washes with RIPA buffer; cross-linked with DSSO or BS2Gd0/d4 on living cells before, or with DSSO on-bead after immunoprecipitation; on-bead trypsin digestion, LC-MS/MS; proteins found with Pgp

Row | binding | Substance
1 | binds | AHNAK (from UniProt E9Q616 1-5656)
2 | binds | NEDD4 (from UniProt P46935 1-887) (enzyme)
3 | binds | RING finger protein 2 (from UniProt Q9CQJ4 1-336) (enzyme)
